According to article PMC12501846:
No constants are given. Whether binding was seen depends on the method and setting. In cells and extracts the contact can be indirect. Some binding calls cover weakened binding; strength is not graded here.

Protein sequences, listed by entry. Tags and fused reporters are not part of them. Lines headed by an entry give the natural chain unless they say otherwise; changes in a name come on top.
UniProt P35222: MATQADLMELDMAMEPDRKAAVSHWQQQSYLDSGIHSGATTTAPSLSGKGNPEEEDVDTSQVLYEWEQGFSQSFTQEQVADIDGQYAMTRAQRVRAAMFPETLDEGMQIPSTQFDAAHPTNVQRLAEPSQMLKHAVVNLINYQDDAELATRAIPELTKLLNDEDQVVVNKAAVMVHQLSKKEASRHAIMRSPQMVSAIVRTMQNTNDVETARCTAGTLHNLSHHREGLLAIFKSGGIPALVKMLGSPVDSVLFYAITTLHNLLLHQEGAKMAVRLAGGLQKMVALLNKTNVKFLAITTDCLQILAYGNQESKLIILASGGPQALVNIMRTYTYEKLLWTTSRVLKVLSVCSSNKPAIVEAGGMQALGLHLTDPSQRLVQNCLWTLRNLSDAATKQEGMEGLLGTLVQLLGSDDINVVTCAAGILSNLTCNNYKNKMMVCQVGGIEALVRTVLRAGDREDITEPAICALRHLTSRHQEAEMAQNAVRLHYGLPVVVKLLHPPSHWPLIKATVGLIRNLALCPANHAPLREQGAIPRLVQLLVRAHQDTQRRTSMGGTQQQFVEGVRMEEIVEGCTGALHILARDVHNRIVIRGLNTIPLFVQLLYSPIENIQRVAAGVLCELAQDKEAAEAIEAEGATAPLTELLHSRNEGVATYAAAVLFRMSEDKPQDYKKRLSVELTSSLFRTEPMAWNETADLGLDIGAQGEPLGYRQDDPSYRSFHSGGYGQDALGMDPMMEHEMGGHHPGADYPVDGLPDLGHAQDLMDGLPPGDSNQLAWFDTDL
UniProt P70288: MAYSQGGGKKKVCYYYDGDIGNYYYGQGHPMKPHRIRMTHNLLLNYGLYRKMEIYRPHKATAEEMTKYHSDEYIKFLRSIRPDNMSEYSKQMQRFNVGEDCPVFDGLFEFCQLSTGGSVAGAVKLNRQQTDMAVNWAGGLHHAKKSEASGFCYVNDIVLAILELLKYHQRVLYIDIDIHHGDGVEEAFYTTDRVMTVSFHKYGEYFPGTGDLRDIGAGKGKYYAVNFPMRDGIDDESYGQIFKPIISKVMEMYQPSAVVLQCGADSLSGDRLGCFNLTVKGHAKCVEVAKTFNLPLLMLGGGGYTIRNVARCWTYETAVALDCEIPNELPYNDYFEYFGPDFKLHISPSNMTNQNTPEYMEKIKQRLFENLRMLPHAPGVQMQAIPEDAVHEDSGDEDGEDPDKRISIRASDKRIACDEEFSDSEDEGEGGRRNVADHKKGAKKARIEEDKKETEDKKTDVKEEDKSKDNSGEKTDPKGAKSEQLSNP

Key:
[1] = target: T1, Tcf3, endogenous (mouse (endogenous in ESCs)) (UniProt Q9Z1J1); assay: co-IP; ESCs ectopically expressing Ctnnb1 S33Y, K49R or K49Q, followed by IP; binding to Nanog or Tcf3
T1 sequence: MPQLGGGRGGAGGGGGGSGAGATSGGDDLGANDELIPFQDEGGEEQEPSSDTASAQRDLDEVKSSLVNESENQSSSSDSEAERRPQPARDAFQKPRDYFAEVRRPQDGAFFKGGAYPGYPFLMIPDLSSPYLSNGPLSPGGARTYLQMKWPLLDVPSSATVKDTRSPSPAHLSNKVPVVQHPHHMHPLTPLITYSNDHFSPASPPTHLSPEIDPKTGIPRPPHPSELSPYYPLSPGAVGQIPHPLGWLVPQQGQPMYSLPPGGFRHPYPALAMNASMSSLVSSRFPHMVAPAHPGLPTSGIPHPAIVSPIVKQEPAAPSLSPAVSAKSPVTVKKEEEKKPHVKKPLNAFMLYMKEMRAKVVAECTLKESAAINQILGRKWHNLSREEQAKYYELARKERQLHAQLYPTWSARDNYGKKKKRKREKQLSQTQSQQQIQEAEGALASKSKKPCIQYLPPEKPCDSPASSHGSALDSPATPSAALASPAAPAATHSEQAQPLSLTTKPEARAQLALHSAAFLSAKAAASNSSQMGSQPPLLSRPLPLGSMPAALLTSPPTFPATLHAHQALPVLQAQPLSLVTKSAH

[2] = target: T2, Nanog, endogenous (mouse (endogenous in ESCs and EpiSCs)) (UniProt Q80Z64); assay: co-IP; IP of Nanog and HDAC2 from ESCs with forced expression of each Ctnnb1 mutant
T2 sequence: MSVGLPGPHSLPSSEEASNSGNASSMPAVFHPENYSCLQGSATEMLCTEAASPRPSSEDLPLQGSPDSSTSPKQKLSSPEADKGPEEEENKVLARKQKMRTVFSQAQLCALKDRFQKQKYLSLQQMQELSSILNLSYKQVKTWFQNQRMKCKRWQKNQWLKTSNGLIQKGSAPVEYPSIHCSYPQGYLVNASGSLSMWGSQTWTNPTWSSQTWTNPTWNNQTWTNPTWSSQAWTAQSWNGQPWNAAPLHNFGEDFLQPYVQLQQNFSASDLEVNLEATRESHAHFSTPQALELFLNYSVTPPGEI

| binding [1] | binding [2] | Substance |
| --- | --- | --- |
| binds |  | HA-Ctnnb1 S33Y (stabilized form of Ctnnb1) (from UniProt P35222 1-781) |
| binds |  | HA-Ctnnb1 S33Y K49Q (acetylation mimic) (from UniProt P35222 1-781) |
|  | binds | HDAC2, endogenous (from UniProt P70288 1-488) |
